We go through 6 molecules from patent CN110642952A.

The chains behind the UniProt entries cited, without tags or fusion partners. Where a name states a change or a piece, a line headed by the entry shows the natural chain unless it says otherwise.
UniProt P21860: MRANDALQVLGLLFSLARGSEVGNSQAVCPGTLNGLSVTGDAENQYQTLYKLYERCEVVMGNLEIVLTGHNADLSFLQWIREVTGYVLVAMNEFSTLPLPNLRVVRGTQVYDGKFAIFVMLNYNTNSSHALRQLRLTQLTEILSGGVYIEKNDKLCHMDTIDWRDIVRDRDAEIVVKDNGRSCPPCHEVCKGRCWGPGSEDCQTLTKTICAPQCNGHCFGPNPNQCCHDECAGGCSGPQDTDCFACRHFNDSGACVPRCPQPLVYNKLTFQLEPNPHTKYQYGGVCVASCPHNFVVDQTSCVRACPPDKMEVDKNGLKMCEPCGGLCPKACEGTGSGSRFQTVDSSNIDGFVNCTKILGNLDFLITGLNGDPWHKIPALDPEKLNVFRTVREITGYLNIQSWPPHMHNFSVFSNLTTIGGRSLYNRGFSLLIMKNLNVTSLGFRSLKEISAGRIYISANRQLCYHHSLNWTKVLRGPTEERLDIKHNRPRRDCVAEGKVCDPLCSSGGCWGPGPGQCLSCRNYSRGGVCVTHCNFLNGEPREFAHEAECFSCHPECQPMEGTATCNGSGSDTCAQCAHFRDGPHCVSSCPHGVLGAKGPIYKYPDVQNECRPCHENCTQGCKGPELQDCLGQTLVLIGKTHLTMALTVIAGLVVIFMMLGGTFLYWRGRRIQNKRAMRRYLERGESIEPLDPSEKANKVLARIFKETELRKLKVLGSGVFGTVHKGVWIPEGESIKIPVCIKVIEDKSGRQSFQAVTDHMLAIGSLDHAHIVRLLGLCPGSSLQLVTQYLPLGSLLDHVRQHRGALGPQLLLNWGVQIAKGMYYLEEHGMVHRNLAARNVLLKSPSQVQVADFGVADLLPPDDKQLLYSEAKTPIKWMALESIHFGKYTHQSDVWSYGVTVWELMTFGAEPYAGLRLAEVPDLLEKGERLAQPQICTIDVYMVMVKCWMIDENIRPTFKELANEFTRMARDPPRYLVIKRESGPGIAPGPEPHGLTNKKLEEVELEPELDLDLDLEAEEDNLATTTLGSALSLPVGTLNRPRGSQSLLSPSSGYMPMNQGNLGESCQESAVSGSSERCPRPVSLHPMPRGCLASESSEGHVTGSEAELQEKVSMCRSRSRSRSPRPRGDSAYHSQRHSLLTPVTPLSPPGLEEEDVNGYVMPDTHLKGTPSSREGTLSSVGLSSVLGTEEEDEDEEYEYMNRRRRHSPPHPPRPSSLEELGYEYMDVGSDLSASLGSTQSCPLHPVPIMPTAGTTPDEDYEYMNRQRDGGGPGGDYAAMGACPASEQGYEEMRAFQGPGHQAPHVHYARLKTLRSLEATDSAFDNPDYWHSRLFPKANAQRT

For assay [1], the target named is HER3胞外区结构域DⅢ与hGH融合表达 (human) (UniProt P01241). As to the kind of experiment: ELISA: antibody coated, hGH-fused HER3 domain segments. Background: ELISA stands for enzyme-linked immunosorbent assay.
Another assay concerns the target HER3 (human) (UniProt P21860). As to the kind of experiment: ELISA of 72 h CHO culture supernatant, HRP goat anti-human IgG.
Assay [2] deals with 细胞表面Her3分子 (SKBR-3细胞) (human) (UniProt P21860). As to the kind of experiment: flow cytometry on SKBR-3 cells, antibody 10 μg/ml, FITC goat anti-mouse IgG. Background: Flow cytometry measures light scatter and fluorescence of single cells or particles in a stream.
Assay [3] deals with HER3胞外区结构域DⅠ与hGH融合表达 (human) (UniProt P01241). As to the kind of experiment: ELISA: antibody coated, hGH-fused HER3 domain segments.

Positions count from the first letter of the chain named. These are yes or no findings as the source states them, for the method shown. Some results given as binding are weak or reduced against the parent protein; the word gives no strength.

B1: HER3鼠源单克隆抗体993 (antibody, V domains shown)
VH: EVKLVESGGGLVKPGGSLKLSCAASGFTFSSYSLSWVRQTPEKRLEWVASITFGGTAYYSDSVKGRFTISRDNARNILYLQMSSLKSEDTAMYYCVRGDGYEDPMDYWGQGTSVTVSS
VL: DIVMTQTTVSLAVSLGQRATISCRASESVDSYGKSFMHWYQQKPGQPPKLLIYRASNLESGIPARFSGSGSRTDFTLTINPVEADDVSTYYCQQSNEDPYTFGGGTKLEIR
Turning to B1, the binding result in assay [1] is reported as “binds”.

B2: HER3人-鼠嵌合单克隆抗体993 (antibody, human IgG1, kappa, V domains shown)
VH: B1 VH
VL: DIVMTQTTVSLAVSLGQRATISCRASESVDSYGKSFMHWYQQKPGQPPKLLIYRASNLESGIPARFSGSGSRTDFTLTINPVEADDVSTYYCQQSNEDPYTFGGGTKLEIRT
B2: in the assay with HER3 (human), the binding entry was “binds”.

B3: HER3鼠源单克隆抗体1044 (antibody, V domains shown)
VH: EVQLQQSGTELMKPGASVKISCKATGGTFSNYWIDWVKQRPGHGLEWIGEILPGSGGTDYNEKFKGKATFTADTSSNTAYMQLSSLTSEDSAVYYCARDDYDVFAYWGQGTLVTVSS
VL: DIVMTQAAFSNPVTLGTSASISCRSSKSLLHSNGITYLYWYLQKPGQSPQLLIYQMSNLASGVPDRFSSSGSGTDFTLRISRVEAEDVGVYYCAQNLELPWTFGGGTKLEIKR
With B3, the binding result in assay [1] and in assay [2] was “binds” throughout.

B4: HER3鼠源单克隆抗体1050 (antibody, V domains shown)
VH: QVQLQQSGPELVKPGASVKISCKASGYSFTSYYIHWVKQRPGQGLEWIGWIFPGSGHTKCNENFKAKATLTADTSSSTAYMQLSSLTSEDSAVYFCARSRDYYGSNAVDYWGQGTSVTVSS
VL: DIVMTQSPSSLTVTAGEKVTMSCKSSQSLLNSGNQKNYLTWYQQKPGQPPKLLIYWASTRESGVPDRFSGSGSGTDFTLTISSVQAEDLAVYYCQNDYSYPYTFGGGTKLEIKR
For B4, the binding entry in assay [3] is on record as “binds”.

B5: HER3人-鼠嵌合单克隆抗体1050 (antibody, human IgG1, kappa, V domains shown)
VH: B4 VH
VL: B4 VL
With B5, the binding entry in the assay with HER3 (human) is recorded as “binds”.

B6: HER3鼠源单克隆抗体927 (antibody, V domains shown)
VH: B4 VH with Q1E, G54R, K59N, C60Y, N63K, A66G, L83V, S105T, V108M
VL: B4 VL with L30F, S69T
For the molecule B6, the binding entry in assay [3] and in assay [2] was “binds” each time.
